# Screening data, single-dose tests

Measurements from “University of Dundee, Small-Polar-MMV Screening Library” (2021), ChEMBL document CHEMBL3988442.

Results are given as percent effect. The controls that fix the scale are not given in the record; negative values are as filed. Compounds were drawn at random from those tested, without regard to their results.

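Growth of Mycobacterium tuberculosis over 3 days (7H9 medium with glucose and tyloxapol); the read-out is not stated. Compounds at 500 µM. Higher reads as more growth inhibition (inferred: compounds with an IC50 in retests scored well above the rest). Of about 18,000 compounds tested this way, about 1,400 (7.9%) reached 50% or more in at least one test.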

structure: Cn1nnnc1SCCNC(=O)c1cc(Cl)ccc1F
Percent Effect: 21.38

structure: COC1CCC(CCN)CC1 (stereo not drawn)
Percent Effect: 10.6

structure: CNc1snc(C)c1C(=O)NCCc1ccccn1
Percent Effect: 29.31

structure: C[C@@H]1CCNC[C@H](C)O1
Percent Effect: -2.424

structure: CCn1cc(Br)c(=O)c(NC(=O)C(C)COC)c1 (stereo not drawn)
Percent Effect: -9.195

structure: CC1c2ccsc2CCN1CCC(=O)NC(N)=O (stereo not drawn)
Percent Effect: 103.6

structure: COC1CNCC1NC(=O)NC(C)C (stereo not drawn)
Percent Effect: -3.059

structure: CN(C)c1ccc(CNS(C)(=O)=O)cn1
Percent Effect: 12.29

structure: COCCN(C)CCNC(=O)c1cccc(I)c1
Percent Effect: 36.4

structure: CN(CC(=O)NC(N)=O)Cc1ccc(C(F)(F)F)cc1
Percent Effect: -11.49

structure: COc1ccc(-c2ccnc(N)n2)cc1
Percent Effect: 7.07

structure: CC(C)OC(=O)c1cccnc1NCc1ccncc1
Percent Effect: 48.49

structure: CCOC(=O)NC1CCC(NC(=O)C2CCC2)CC1 (stereo not drawn)
Percent Effect: -1.787

structure: Cc1nnc(SCC(=O)Nc2ccccc2C#N)[nH]1
Percent Effect: 9.908

structure: CCOCCN1CCN(CC(C)O)CC1 (stereo not drawn)
Percent Effect: -4.863

structure: Cc1nn(C(C)C)c(C)c1NC(=O)N1CCC[C@H]1CO
Percent Effect: 25.49

structure: CC(=O)NCCCN1CCN(c2ccccc2F)CC1
Percent Effect: 11.57

structure: COC(=O)N1CCC(NC(=O)CCc2ccsc2)C1 (stereo not drawn)
Percent Effect: 49.94

structure: CN(C)Cc1ccccc1CN(C)Cc1ncc[nH]1
Percent Effect: 6.152

structure: NCc1ccc(N)nc1
Percent Effect: 8.193

structure: CCN1CCN(CCS(=O)(=O)c2ccccc2)CC1
Percent Effect: 13.8

structure: NCC1(CC(N)=O)CC1
Percent Effect: 10.76

structure: Cc1ccsc1CN(C)C(=O)c1ccc(=O)n(C)n1
Percent Effect: 13.26

structure: CCC(=O)NCC(c1ccsc1)N(C)C (stereo not drawn)
Percent Effect: 9.3

structure: CNC1CCN(C(=O)OC(C)(C)C)CC1
Percent Effect: -1.49

structure: CC(C)CC(=O)NCCc1noc(-c2ccncc2)n1
Percent Effect: -9.706

structure: CSC(C)C(=O)NCc1ccccc1Cn1cncn1 (stereo not drawn)
Percent Effect: 14.07

structure: CC1=CC(=O)N(Cc2ccccc2)C1=O
Percent Effect: 102.6

structure: CC1=NN(C(=O)CC#N)C(O)(c2ccccc2)C1 (stereo not drawn)
Percent Effect: 18.39

structure: CC(C)N(C)C(=O)C1CCCNC1 (stereo not drawn)
Percent Effect: -8.093

structure: CN(CCCNS(C)(=O)=O)CC1CCCCO1 (stereo not drawn)
Percent Effect: 1.5

structure: COCCCNC(=O)CN(C)c1ccccc1F
Percent Effect: 39.69

structure: O=c1c2ccccc2ncn1CCc1ccccn1
Percent Effect: 22.61

structure: CN(C)c1nnc(SCCCC#N)s1
Percent Effect: -8.819

structure: Cc1cc(C)nc(CN(C)CCC(=O)NC(C)C)c1
Percent Effect: 6.934

structure: NC(=O)C1CCN(c2ncnc3ccsc23)CC1
Percent Effect: 8.52

structure: CC(CCO)CNS(=O)(=O)c1ccccc1F (stereo not drawn)
Percent Effect: 31.49

structure: CC[C@H](C)[C@H](NC(=O)c1cc(=O)c(OC)c[nH]1)C(N)=O
Percent Effect: -5.262

structure: CN(C)CCO[C@@H]1COCC[C@H]1NC(=O)C1CC=CC1
Percent Effect: -7.254

structure: COc1cc(N2CCNCC2)ncn1
Percent Effect: 7.74

structure: COC(=O)CSc1nnc(-c2ccco2)[nH]1
Percent Effect: 6.366

structure: NCC(=O)N1CCCC(CCc2c(F)cccc2F)C1 (stereo not drawn)
Percent Effect: 83.68

structure: COCCCOc1cc(C)ccc1CN
Percent Effect: -4.422

structure: CN(Cc1nccs1)C(=O)C1COc2ccccc2C1 (stereo not drawn)
Percent Effect: 63.35

structure: CN(Cc1ccc(N)nc1)c1cccc(C#N)n1
Percent Effect: 42.95

structure: O=C(CC1CCS(=O)(=O)C1)NCCc1ccc(F)cc1 (stereo not drawn)
Percent Effect: 13.6

structure: NCc1cnccc1C(F)(F)F
Percent Effect: 4.861

structure: Cc1cccc(C)c1CN(C)S(C)(=O)=O
Percent Effect: 14.98

structure: C[C@@H](N)C(=O)N(Cc1ccccc1F)C1CCC1
Percent Effect: 19.59

structure: Cc1cccc(CCNC(=O)C2=NN(C)C(=O)CC2)c1
Percent Effect: 2.806

structure: COCc1cc(C(C)=O)ccc1OC
Percent Effect: 1.662

structure: CC(C)Cc1ccc(CNC(CO)CO)cc1
Percent Effect: 8.411

7 of the entries, repeated:

CNc1snc(C)c1C(=O)NCCc1ccccn1 gave 29.31%.
Cc1cccc(CCNC(=O)C2=NN(C)C(=O)CC2)c1 gave 2.806%.
NCc1cnccc1C(F)(F)F gave 4.861%.
COCCN(C)CCNC(=O)c1cccc(I)c1 gave 36.4%.
COC(=O)CSc1nnc(-c2ccco2)[nH]1 gave 6.366%.
NCc1ccc(N)nc1 gave 8.193%.
CC(C)OC(=O)c1cccnc1NCc1ccncc1 gave 48.49%.